{"sequences": {"note": "The chains behind the UniProt entries cited, without tags or fusion partners. Where a name states a change or a piece, a line headed by the entry shows the natural chain unless it says otherwise.", "UniProt Q9SYS6": "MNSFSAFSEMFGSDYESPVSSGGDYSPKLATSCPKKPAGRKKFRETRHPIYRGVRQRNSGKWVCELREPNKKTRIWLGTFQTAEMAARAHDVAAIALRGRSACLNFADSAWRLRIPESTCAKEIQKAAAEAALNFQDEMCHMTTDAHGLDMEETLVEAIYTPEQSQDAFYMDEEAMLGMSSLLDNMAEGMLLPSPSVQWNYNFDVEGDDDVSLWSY", "UniProt Q9M0L0": "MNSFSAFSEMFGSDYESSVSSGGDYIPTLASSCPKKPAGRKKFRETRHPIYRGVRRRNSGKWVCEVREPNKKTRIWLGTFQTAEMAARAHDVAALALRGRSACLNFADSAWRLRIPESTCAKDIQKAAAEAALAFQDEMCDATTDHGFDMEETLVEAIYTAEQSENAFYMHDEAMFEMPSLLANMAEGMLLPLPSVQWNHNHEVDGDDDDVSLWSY"}, "source": "patent US6417428", "key": {"[1]": {"molecular_target": "CBF2 (Arabidopsis thaliana) (UniProt Q9SYS6)", "experiment": "one hybrid", "conditions": "activates CRT/DRE-lacZ reporters in yeast; protein in cells; protein details: expressed in yeast from pDB20.1 (ADC1 promoter); label: 32P end-filled (probe)"}, "[2]": {"molecular_target": "CBF3 (Arabidopsis thaliana) (UniProt Q9M0L0)", "experiment": "one hybrid", "conditions": "activates CRT/DRE-lacZ reporters in yeast; protein in cells; protein details: expressed in yeast from pDB20.1 (ADC1 promoter); label: 32P end-filled (probe)"}}, "data": [{"sequence": "GATCATTTCATGGCCGACCTGCTTTTT (double strand) [MT50 COR15a C-repeat/DRE]", "values": [{"measurement": "activity on this sequence", "setting": "[1]", "result": "active"}, {"measurement": "activity on this sequence", "setting": "[2]", "result": "active"}]}]}
